# Experimental data as given in PubChem BioAssay AID1688 (National Center for Advancing Translational Sciences (NCATS), 2009).
# “And” between values parts separate entries of the source, which are not always exact repeats. Identical values can stand only once. Hit rate of the full screen: of about 220,000 compounds, about 2,400 (1.1%) were called active. The shares of active, inactive and inconclusive entries below differ from those in the screen. Calls follow the shape of the dose curve; as a rule, active = well fitted inhibition curve with a large enough effect; inconclusive = small, poorly fitted or top-dose-only effect, or effect the other way; inactive = no such curve, though single readings can be large or run the other way. Where the call is inconclusive, the potency comes from a doubtful curve fit.
# Test: qHTS Multiplex Assay to Identify Dual Action Probes in a Cell Model of Huntington: Aggregate Formation (GFP); also: nearly all actives have a fitted effect of over 60% in size
# Conditions: PC12 HttQ103-GFP aggregates, Acumen cytometry, 40 h; activity change, negative = inhibition: at 46.1 µM (top of the series) unless noted
# In short: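 Read-out: GFP aggregate count by laser scanning cytometer (488 nm excitation, 500-530 nm emission, 1–25 µm objects >6 SD above background). Cells: PC12, inducible HTTex1-Q103-GFP, 100 nM tebufenozide; compounds titrated.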
# % is scaled to controls: 0 for no effect and ±100 for the full control effect; potency is read from the fitted curve at half-maximal effect.
SMILES,Potency,"activity change, negative = inhibition"
Cc1ccc2nc(-c3ccccn3)c(Nc3ccccc3C)n2c1,"inconclusive: 35.5 µM [inhibitor, single point]",–
Cc1cc(C)n(-c2c(F)c(F)c(CN3CCCCC3)c(F)c2F)n1,–,inactive: -4.5%
O=S(=O)(Nc1ncnc2sc3c(c12)CCC3)c1ccc(Cl)s1,"inconclusive: 11.2 µM [inhibitor, partial curve]",–
FC(F)(F)c1cccc(NC(=S)NNC(=S)Nc2ccc(Cl)cc2)c1,–,inactive: -11.3% [at 9.22 µM]
CS(=O)(=O)c1ccc(C(=O)NCC2(N3CCCCC3)CCCCC2)cc1,"inconclusive: 1.26 µM [inhibitor, single point]",–
CCOc1ccc(Cn2c(C)nc([N+](=O)[O-])c2SCC(O)CCl)cc1[N+](=O)[O-] (stereo not drawn),"inconclusive: 3.55 µM [activator, partial curve]",–
Cc1cccc(C)c1NC(=O)COc1ccc2c(C)c(Cc3ccccc3)c(=O)oc2c1,"inconclusive: 10 µM [inhibitor, partial curve]",–
CN1CCN(S(=O)(=O)c2cccc(C(=O)N(c3ccccn3)C3CCCCC3)c2)CC1,–,inactive: -2.85%
CCN=c1scc(-c2ccco2)n1/N=C/c1ccc(O)cc1,"inconclusive: 1.26 µM [inhibitor, single point]",–
COc1ccc(CN2CCN(C(c3ccc(F)cc3)c3ccc(F)cc3)CC2)c(OC)c1OC,"inconclusive: 31.6 µM [inhibitor, single point]",–
COc1cc(NC(=S)NCCCO)c(OC)cc1Cl,"inconclusive: 11.2 µM [activator, partial curve]",–
O=S(=O)(Nc1ccc2c(c1)OCCO2)c1ccc(Br)s1,active: 12.6 µM,–
CCc1ccc(N(CC)C(=O)c2ccc3c(Cl)c4c(nc3c2)CCC4)cc1,"inconclusive: 35.5 µM [inhibitor, single point]",–
CN1CCN(CC(O)COc2ccc(C34CC5CC(CC(C5)C3)C4)cc2)CC1 (stereo not drawn),"inconclusive: 31.6 µM [inhibitor, single point]",–
CN(C)/C=C(\C=N\OCc1ccc(Cl)cc1Cl)C(=O)Nc1ccc(Cl)c(Cl)c1,"inconclusive: 35.5 µM [inhibitor, single point]",–
CC1=CC(C)(C)n2c(O)c(N=N)c3c(C)ccc1c32,–,inactive: -28.7% [at 9.22 µM]
Cc1cc(C)c2nc(-c3ccccn3)cc(C(=O)Nc3ccc(S(=O)(=O)Nc4cc(C)on4)cc3)c2c1,–,inactive: 18.7%
COc1ccccc1Oc1ccc(Oc2ccccc2OC)cc1,"inconclusive: 35.5 µM [inhibitor, single point]",–
CCOC(=O)c1ccc(COC(=O)CCc2nc3ccccc3[nH]c2=O)o1,active: 2.82 µM,–
Oc1c(CN2CCOCC2)cc(COCc2ccccc2)c2cccnc12,"inconclusive: 1.58 µM [inhibitor, full curve]",–
Cc1ccc(SCc2ccc(C(=O)Nc3ccccc3Br)cc2)cc1,"inconclusive: 5.62 µM [inhibitor, partial curve]",–
CCN1CCN(Cc2ccc(NC(=O)c3ccc(C)c(NC(=O)c4c[nH]c5cc(C(F)(F)F)ccc5c4=O)c3)cc2C(F)(F)F)CC1,–,inconclusive: 14.1% [activator] [at 9.22 µM]

SMILES,Potency,"activity change, negative = inhibition"
CCN1CCN(c2nc(-c3cccs3)nc3ccccc23)CC1,"inconclusive: 5.62 µM [inhibitor, partial curve]",–
O=C(c1ccc(Cl)c(S(=O)(=O)N2CCCC2)c1)N1CCN(c2ccccc2F)CC1,"inconclusive: 31.6 µM [inhibitor, single point]",–
Cc1c(C(=O)c2ccc(Cl)c(Cl)c2)cnc2cc3c(cc12)OCO3,"inconclusive: 35.5 µM [inhibitor, single point]",–
Cc1ccc(CN2CCN(CC3CC4C=CC3C4)CC2)cc1 (stereo not drawn),active: 3.16 µM,–
CCn1c(=O)cc(SCC(=O)N2CCN(C(=O)c3ccco3)CC2)c2ccccc21,"inconclusive: 3.55 µM [activator, single point]",–
CCOc1cc(-c2cc(-c3ccc(C)cc3)nc(N)c2C#N)ccc1O,"inconclusive: 31.6 µM [inhibitor, single point]",–
Cc1csc(NC(=O)c2cc3c(s2)-c2ccccc2OC3)n1,–,inactive: 2.74%
O=C(Nc1ccc(Cl)cc1)N(Cc1cccs1)Cc1cccs1,"inconclusive: 17.8 µM [inhibitor, single point]",–
CCN(CCO)C1CC(=O)N(c2ccccc2C)C1=O (stereo not drawn),"inconclusive: 35.5 µM [inhibitor, single point]",–
CC(C)(C)OC(=O)NCCCC[C@H](NC(=O)c1[nH]cnc1C(=O)Nc1ccc(Cl)cc1)C(=O)OC(C)(C)C,–,inactive: -31.4% [at 9.22 µM]
Cc1ccc(-c2cn(-c3ccccc3)c3[n+]2CCCS3)cc1,active: 11.2 µM and active: 1.78 µM,–
O=C(CN1CCCC1)Nc1ccc(-c2nc3cc(NC(=O)CN4CCCC4)ccc3o2)cc1,"inconclusive: 5.62 µM [inhibitor, single point]",–
O=C(NCCCCNC(=O)c1ccco1)c1ccco1,–,inactive: 17.1%
COc1ccc2nc(NC(=O)c3cccc(S(=O)(=O)N4CCOCC4)c3)sc2c1,"inconclusive: 12.6 µM [inhibitor, single point]",–
O=C(c1n[nH]c2ccccc12)N1CCN(S(=O)(=O)c2ccc3ccccc3c2)CC1,"inconclusive: 17.8 µM [inhibitor, single point]",–
Cc1cc(OCC(=O)Nc2ccc(S(=O)(=O)NC3=NCCCCC3)cc2)c(C(C)C)cc1Cl,–,inactive: 0.713%
COc1ccc(Nc2oc(COc3ccc(Cl)cc3)nc2C#N)cc1,"inconclusive: 35.5 µM [activator, single point]",–
CCN(CC)C(=O)C1CCN(S(=O)(=O)c2cccc3nonc23)CC1,"inconclusive: 12.6 µM [activator, single point]",–
Cn1c(=O)c(/C(N)=N/OC(=O)c2ccccc2)cn(-c2ccccc2)c1=O,–,inactive: -4.82% [at 9.22 µM]
O=C(NCCO)c1ccc2nc(-c3ccco3)c(-c3ccco3)nc2c1,–,inactive: -11.7%
COc1cc(/C=C2/CCc3ccccc3C2=O)cc(OC)c1OC,"inconclusive: 12.6 µM [activator, single point]",–
